Data as given in patent publication US11965204B2, “Detection of analytes by enzyme-mediated strand displacement reactions” (priority 2020, dated 2024).
For at least one compound, name, drawing or mass did not settle the structure.

Chains of the proteins cited; added tags and fusions are not shown. Lines headed by an entry give the natural chain unless they say otherwise; changes in a name come on top.
UniProt P04483: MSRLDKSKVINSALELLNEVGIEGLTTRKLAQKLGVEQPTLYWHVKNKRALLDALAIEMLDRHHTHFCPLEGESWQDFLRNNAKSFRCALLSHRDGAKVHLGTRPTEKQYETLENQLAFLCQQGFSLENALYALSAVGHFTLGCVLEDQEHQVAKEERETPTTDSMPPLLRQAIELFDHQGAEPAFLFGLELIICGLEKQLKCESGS

Target: T1, TetR (Escherichia coli, UniProt P04483)
T1 construct: His-tag (C); made in house; host or cells: E. coli BL21 DE3, pET-28a
Test: TetR-based biosensor, derepression by ligand
Type: biochemical, E. coli
Details: system repressed by a given concentration of TetR; tetracycline 25-500 nM, 37° C.; FIG. 8

## CN(C)[C@@H]1C(O)=C(C(N)=O)C(=O)[C@@]2(O)C(O)=C3C(=O)c4c(O)cccc4[C@@](C)(O)[C@H]3C[C@@H]12 [tetracycline]
  response of the TetR-repressed reaction to the ligand: derepressed
